Patent US5889148A, “Antibiotic peptides” (priority 1995, dated 1999)
Converted amounts (≈) assume the structure as drawn. Not every detail of the peptide structures is certain; ends, links or a residue may be inferred. Non-standard residues stand in square brackets, D forms with d. Residues, ends and D or L forms follow the SMILES beside them. No end group written: not given here. Nle = CCCC[C@H](N)C(=O)O; Aib = CC(C)(N)C(=O)O

Key:
[1] = test system: Staphylococcus aureus (ATCC 6538); experiment: MIC test, antibacterial activity; type: cell-based
Description: (§1) Antibacterial and antifungal activities of the peptides were determined by employing MIC test as follows:
(§2) To determine antifungal activity, a test organism Candida albicans (ATCC 36232) was cultured on Sabouraud dextrose agar plate for 24 to 48 hrs, and colonies thus grown were suspended on Sabouraud dextrose medium(Gibco, USA) to have O.D.530 =0.5(3×10^6 cells) and further diluted with 100-fold to have O.D.530 =0.005(3×10^4 cells). 100 μl of Candida albicans culture thus prepared was pipetted on 96-well microplates which had already contained 100 μl of a serially diluted peptide solution.
Antibacterial activity of peptide was determined analogously as above, with an exception that Staphylococcus aureus (ATCC 6538) selected as a test organism was cultured on M-3 medium(Gibco, USA) at 37° C. and cell number was adjusted to 2×10^8 cells before 100-fold dilution.

[2] = test system: Candida albicans (ATCC 36232); experiment: MIC test, antifungal activity; type: cell-based
Description: as §1, §2

[3] = Table 8, TEDFK derivatives of group 1
[4] = Table 9, TEDFK derivatives of group 2
[5] = Table 11, enantiomer, retro-inverso, D-amino acid derivatives of M22
[6] = Table 10, TEDFK derivatives of group 3

| Molecule | MIC S. aureus [1, 3] [mg/L] | MIC C. albicans [2, 3] [mg/L] | MIC S. aureus [1, 5] [mg/L] | MIC C. albicans [2, 5] [mg/L] | other results |
| --- | --- | --- | --- | --- | --- |
| CC[C@H](C)[C@H](NC(=O)[C@H](Cc1ccc(O)cc1)NC(=O)[C@H](Cc1ccccc1)NC(=O)[C@@H](N)CCCCN)C(=O)N[C@@H](CC(N)=O)C(=O)NCC(=O)N[C@@H](CCCCN)C(=O)N[C@@H](CCCNC(=N)N)C(=O)N[C@H](C(=O)N[C@@H](CS)C(=O)N[C@H](C(=O)N[C@@H](CS)C(=O)N[C@@H](CCCNC(=N)N)C(N)=O)C(C)C)C(C)C [M9, KFYINGKRVCVCR--NH2] (H-KFYINGKRVCVCR-NH2) | 3.16 (≈ 1.99 µM) | 3.12 (≈ 1.97 µM) | – | – | – |
| CC(C)[C@H](NC(=O)[C@H](CS)NC(=O)[C@@H](NC(=O)[C@H](CCCNC(=N)N)NC(=O)[C@H](CCCCN)NC(=O)CNC(=O)[C@H](CC(N)=O)NC(=O)[C@H](CO)NC(=O)[C@H](Cc1ccc(O)cc1)NC(=O)[C@H](Cc1ccccc1)NC(=O)[C@@H](N)CCCCN)C(C)C)C(=O)N[C@@H](CS)C(=O)N[C@@H](CCCNC(=N)N)C(N)=O [M10, KFYSNGKRVCVCR--NH2] (H-KFYSNGKRVCVCR-NH2) | 6.35 (≈ 4.07 µM) | 6.25 (≈ 4.01 µM) | – | – | – |
| CC(C)[C@H](NC(=O)[C@H](CO)NC(=O)[C@@H](NC(=O)[C@H](CCCNC(=N)N)NC(=O)[C@H](CCCCN)NC(=O)CNC(=O)[C@H](CC(N)=O)NC(=O)[C@H](CS)NC(=O)[C@H](Cc1ccc(O)cc1)NC(=O)[C@H](Cc1ccccc1)NC(=O)[C@@H](N)CCCCN)C(C)C)C(=O)N[C@@H](CS)C(=O)N[C@@H](CCCNC(=N)N)C(N)=O [M11, KFYCNGKRVSVCR--NH2] (H-KFYCNGKRVSVCR-NH2) | 6.35 (≈ 4.07 µM) | 6.25 (≈ 4.01 µM) | – | – | – |
| CCCC[C@H](NC(=O)[C@@H](NC(=O)[C@H](CS)NC(=O)[C@@H](NC(=O)[C@H](CCCNC(=N)N)NC(=O)[C@H](CCCCN)NC(=O)CNC(=O)[C@H](CC(N)=O)NC(=O)[C@H](CS)NC(=O)[C@H](Cc1ccc(O)cc1)NC(=O)[C@H](Cc1ccccc1)NC(=O)[C@@H](N)CCCCN)C(C)C)C(C)C)C(=O)N[C@@H](CCCNC(=N)N)C(N)=O [M12, KFYCNGKRVCVnLR--NH2] (H-KFYCNGKRVCV[Nle]R-NH2) | 6.35 (≈ 4.01 µM) | 6.25 (≈ 3.94 µM) | – | – | – |
| CC[C@H](C)[C@H](NC(=O)[C@@H](NC(=O)[C@H](CCCNC(=N)N)NC(=O)[C@H](CCCCN)NC(=O)CNC(=O)[C@H](CC(N)=O)NC(=O)C(C)(C)NC(=O)[C@H](Cc1ccc(O)cc1)NC(=O)[C@H](Cc1ccccc1)NC(=O)[C@@H](N)CCCCN)C(C)C)C(=O)N[C@H](C(=O)N[C@@H](CS)C(=O)N[C@@H](CCCNC(=N)N)C(N)=O)C(C)C [M14, KFY(Aib)NGKRVIVCR--NH2] (H-KFY[Aib]NGKRVIVCR-NH2) | 12.7 (≈ 8.1 µM) | 12.5 (≈ 7.98 µM) | – | – | – |
| CC(C)[C@H](NC(=O)[C@H](Cc1ccccc1)NC(=O)[C@@H](NC(=O)[C@H](CCCCN)NC(=O)[C@H](CCCCN)NC(=O)CNC(=O)[C@H](CC(N)=O)NC(=O)C(C)(C)NC(=O)[C@H](Cc1ccc(O)cc1)NC(=O)[C@H](Cc1ccccc1)NC(=O)[C@@H](N)CCCCN)C(C)C)C(=O)N[C@@H](Cc1ccccc1)C(=O)N[C@@H](CCCCN)C(N)=O [M19, KFY(Aib)NGKKVFVFK--NH2] (H-KFY[Aib]NGKKVFVFK-NH2) | 6.35 (≈ 4 µM) | 6.25 (≈ 3.93 µM) | – | – | – |
| CC(C)[C@H](NC(=O)[C@H](Cc1ccccc1)NC(=O)[C@@H](NC(=O)[C@H](CCCCN)NC(=O)[C@H](CCCCN)NC(=O)C(C)(C)NC(=O)[C@H](Cc1ccc(O)cc1)NC(=O)[C@H](Cc1ccccc1)NC(=O)[C@@H](N)CCCCN)C(C)C)C(=O)N[C@@H](Cc1ccccc1)C(=O)N[C@@H](CCCCN)C(N)=O [M20, KFY(Aib)KKVFVFK--NH2] (H-KFY[Aib]KKVFVFK-NH2) | – | – | – | – | MIC S. aureus [1, 4]: 6.35 mg/L (≈ 4.48 µM); MIC C. albicans [2, 4]: 6.25 mg/L (≈ 4.41 µM) |
| CC[C@H](C)[C@H](NC(=O)[C@H](CS)NC(=O)[C@@H](NC(=O)[C@H](CCCCN)NC(=O)[C@H](CCCCN)NC(=O)[C@H](CC(N)=O)NC(=O)[C@@H](NC(=O)[C@@H](NC(=O)[C@@H](NC(=O)[C@@H](N)CCCCN)[C@@H](C)CC)[C@@H](C)CC)[C@@H](C)CC)[C@@H](C)CC)C(=O)N[C@@H](CS)C(=O)N[C@@H](CCCCN)C(N)=O [M21, KIIINKKICICK--NH2] (H-KIIINKKICICK-NH2) | 3.16 (≈ 2.23 µM) | 3.12 (≈ 2.2 µM) | – | – | – |
| CC[C@H](C)[C@H](NC(=O)[C@H](Cc1ccc(O)cc1)NC(=O)[C@H](CCCCN)NC(=O)[C@H](N)CCCCN)C(=O)N[C@@H](CCCCN)C(=O)N[C@@H](CCCCN)C(=O)N[C@H](C(=O)N[C@@H](Cc1ccccc1)C(=O)N[C@H](C(=O)N[C@@H](Cc1ccccc1)C(=O)N[C@@H](CCCCN)C(N)=O)C(C)C)C(C)C [M22-1, kKYIKKVFVFK--NH2] (H-[dK]KYIKKVFVFK-NH2) | – | – | 3.15 (≈ 2.21 µM) | 3.12 (≈ 2.19 µM) | – |
| CC[C@H](C)[C@H](NC(=O)[C@H](Cc1ccc(O)cc1)NC(=O)[C@@H](CCCCN)NC(=O)[C@H](N)CCCCN)C(=O)N[C@@H](CCCCN)C(=O)N[C@@H](CCCCN)C(=O)N[C@H](C(=O)N[C@@H](Cc1ccccc1)C(=O)N[C@H](C(=O)N[C@@H](Cc1ccccc1)C(=O)N[C@@H](CCCCN)C(N)=O)C(C)C)C(C)C [M22-2, kkYIKKVFVFK--NH2] (H-[dK][dK]YIKKVFVFK-NH2) | – | – | 3.15 (≈ 2.21 µM) | 3.12 (≈ 2.19 µM) | – |
| CC[C@H](C)[C@H](NC(=O)[C@@H](Cc1ccc(O)cc1)NC(=O)[C@@H](CCCCN)NC(=O)[C@H](N)CCCCN)C(=O)N[C@@H](CCCCN)C(=O)N[C@@H](CCCCN)C(=O)N[C@H](C(=O)N[C@@H](Cc1ccccc1)C(=O)N[C@H](C(=O)N[C@@H](Cc1ccccc1)C(=O)N[C@@H](CCCCN)C(N)=O)C(C)C)C(C)C [M22-3, kkyIKKVFVFK--NH2] (H-[dK][dK][dY]IKKVFVFK-NH2) | – | – | 3.16 (≈ 2.21 µM) | 3.12 (≈ 2.19 µM) | – |
| CC[C@H](C)[C@H](NC(=O)[C@H](Cc1ccc(O)cc1)NC(=O)[C@H](CCCCN)NC(=O)[C@@H](N)CCCCN)C(=O)N[C@@H](CCCCN)C(=O)N[C@@H](CCCCN)C(=O)N[C@H](C(=O)N[C@@H](Cc1ccccc1)C(=O)N[C@H](C(=O)N[C@@H](Cc1ccccc1)C(=O)N[C@H](CCCCN)C(N)=O)C(C)C)C(C)C [M22-4, KKYIKKVFVFk--NH2] (H-KKYIKKVFVF[dK]-NH2) | – | – | 3.17 (≈ 2.22 µM) | 3.11 (≈ 2.18 µM) | – |
| CC[C@H](C)[C@H](NC(=O)[C@H](Cc1ccc(O)cc1)NC(=O)[C@H](CCCCN)NC(=O)[C@@H](N)CCCCN)C(=O)N[C@@H](CCCCN)C(=O)N[C@@H](CCCCN)C(=O)N[C@H](C(=O)N[C@@H](Cc1ccccc1)C(=O)N[C@H](C(=O)N[C@H](Cc1ccccc1)C(=O)N[C@H](CCCCN)C(N)=O)C(C)C)C(C)C [M22-5, KKYIKKVFVfk--NH2] (H-KKYIKKVFV[dF][dK]-NH2) | – | – | 3.12 (≈ 2.19 µM) | 3.12 (≈ 2.19 µM) | – |
| CC[C@H](C)[C@H](NC(=O)[C@H](Cc1ccc(O)cc1)NC(=O)[C@H](CCCCN)NC(=O)[C@@H](N)CCCCN)C(=O)N[C@@H](CCCCN)C(=O)N[C@@H](CCCCN)C(=O)N[C@H](C(=O)N[C@@H](Cc1ccccc1)C(=O)N[C@@H](C(=O)N[C@H](Cc1ccccc1)C(=O)N[C@H](CCCCN)C(N)=O)C(C)C)C(C)C [M22-6, KKYIKKVFvfk--NH2] (H-KKYIKKVF[dV][dF][dK]-NH2) | – | – | 3.13 (≈ 2.19 µM) | 3.15 (≈ 2.21 µM) | – |
| CC[C@H](C)[C@H](NC(=O)[C@H](Cc1ccc(O)cc1)NC(=O)[C@@H](CCCCN)NC(=O)[C@H](N)CCCCN)C(=O)N[C@@H](CCCCN)C(=O)N[C@@H](CCCCN)C(=O)N[C@H](C(=O)N[C@@H](Cc1ccccc1)C(=O)N[C@H](C(=O)N[C@@H](Cc1ccccc1)C(=O)N[C@H](CCCCN)C(N)=O)C(C)C)C(C)C [M22-8, kkYIKKVFVFk--NH2] (H-[dK][dK]YIKKVFVF[dK]-NH2) | – | – | 3.16 (≈ 2.21 µM) | 3.12 (≈ 2.19 µM) | – |
| CC[C@H](C)[C@H](NC(=O)[C@@H](Cc1ccc(O)cc1)NC(=O)[C@@H](CCCCN)NC(=O)[C@H](N)CCCCN)C(=O)N[C@@H](CCCCN)C(=O)N[C@@H](CCCCN)C(=O)N[C@H](C(=O)N[C@@H](Cc1ccccc1)C(=O)N[C@H](C(=O)N[C@@H](Cc1ccccc1)C(=O)N[C@H](CCCCN)C(N)=O)C(C)C)C(C)C [M22-9, kkyIKKVFVFk--NH2] (H-[dK][dK][dY]IKKVFVF[dK]-NH2) | – | – | 3.15 (≈ 2.21 µM) | 3.11 (≈ 2.18 µM) | – |
| CC(C)[C@H](NC(=O)[C@H](CS)NC(=O)[C@@H](NC(=O)[C@H](CCCNC(=N)N)NC(=O)[C@H](CCCCN)NC(=O)CNC(=O)[C@@H](N)Cc1c[nH]cn1)C(C)C)C(=O)N[C@@H](CS)C(=O)N[C@@H](CCCNC(=N)N)C(N)=O [TED13, HGKRVCVCR--NH2] (H-HGKRVCVCR-NH2) | – | – | – | – | MIC against C. albicans ([2]; Table 2, modification of N-terminal residues of TED): > 500 mg/L |
| CC(C)[C@H](NC(=O)[C@H](CCCNC(=N)N)NC(=O)[C@H](CCCCN)NC(=O)CNC(=O)[C@H](CC(N)=O)NC(=O)C(C)(C)NC(=O)[C@H](Cc1ccc(O)cc1)NC(=O)[C@H](Cc1ccccc1)NC(=O)[C@@H](N)CCCCN)C(=O)NC(C)(C)C(=O)N[C@H](C(=O)N[C@@H](CS)C(=O)N[C@@H](CCCNC(=N)N)C(N)=O)C(C)C [TEDFK-1,2A, KFY(Aib)NGKRV(Aib)VCR--NH2] (H-KFY[Aib]NGKRV[Aib]VCR-NH2) | – | – | – | – | MIC against C. albicans ([2]; Table 6, substitution of Cys in TEDFK with Aib): 20 mg/L (≈ 13 µM) |
| KKKKYIVFVFK-NH2 [M32, KKKKYIVFVFK--NH2] | – | – | – | – | MIC against C. albicans [2, 6]: 3.12 mg/L |
| KKYIVFVFK-NH2 [M34, KKYIVFVFK--NH2] | – | – | – | – | MIC against C. albicans [2, 6]: 3.12 mg/L |
| KYIVFVFK-NH2 [M37, KYIVFVFK--NH2] | – | – | – | – | MIC against C. albicans [2, 6]: 3.12 mg/L |
